# Experimental data published in the supplement of paper PMC8846439.
# Counter-ions that a name gives are not always drawn. This is one part of the list. Repeats are few or missing, and single values can be far off.
# Tested on: Trypanosoma brucei brucei bloodstream form L262P (kDNA-independent)
# Assay: viability Z-score (nuclei count per well, median-polish normalised, relative to plate distribution); higher = more viable parasites (negative = growth inhibition)
# Details: 4 days; compound concentration: 10 µM (some Prestwick/PKE rows may be 1 µM / not distinguished)
row,Compound,viability Z-score
1,O=[S](=O)(NC=1N=CC([Cl])=CC=1)C=2/C=C(/[Br])C([Cl])=NC=2,-2.23
2,N/1(C(NC(/C(=C1)/F)=O)=O)C(=O)NCCCCCC [Carmofur],-3.13
3,[F]C([F])([F])C1=NC(=N/C=C1/C2=N/N=NN2/C3=C/C=C(/[F])C=C3)C=4[S]C=CC=4,-2.78
4,O=C(Nc1ccc(S(=O)(=O)N2CCCCC2)cc1)c1cccc(Cl)c1,-3.28
5,C=1(N=CC=CN=1)[S]CCO/C3=C/C=C(/OC/C2=C/C=CC=C2)C=C3,-2.96
6,COCCCC/C(=N\OCCN)c1ccc(C(F)(F)F)cc1 [Fluvoxamine maleate],-3.81
7,O=[N+]([O-])C=C1CCCN1c1cc(O)c(N2CCC/C2=C\[N+](=O)[O-])cc1O,-3.43

# 2 of these compounds in another layout:
row	Compound	viability Z-score
2	N/1(C(NC(/C(=C1)/F)=O)=O)C(=O)NCCCCCC [Carmofur]	-3.13
3	[F]C([F])([F])C1=NC(=N/C=C1/C2=N/N=NN2/C3=C/C=C(/[F])C=C3)C=4[S]C=CC=4	-2.78
